This experiment concerns the target MAP7 MT-binding domain (MTBD), residues 59-170 (Homo sapiens) (UniProt Q14244). Nature of the experiment: NMR titration.

Chains of the proteins cited; added tags and fusions are not shown. Residues count along the entry.
UniProt Q14244, residues 59-170: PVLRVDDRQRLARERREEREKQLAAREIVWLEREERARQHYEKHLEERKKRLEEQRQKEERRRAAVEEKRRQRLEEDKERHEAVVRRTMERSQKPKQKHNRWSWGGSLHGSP

Results on one molecule are retold here after publication doi:10.1101/2023.06.02.543398.

These are yes or no findings as the source states them, for the method shown. Some results given as binding are weak or reduced against the parent protein; the word gives no strength.

As for DATAEEEEDFGEEAEEEA [β-tubulin carboxy-terminal tail peptide (Asp 427-Ala 444 of HeLa S3 β-tubulin)], the binding entry was “binds weakly”.
